# This is one part of the list.
# B1: YghJ (Escherichia coli), E3PJ90 (protein)
# chain: MNKKFKYKKSLLAAILSATLLAGCDGGGSGSSSDTPPVDSGTGSLPEVKPDPTPNPEPTPEPTPDPEPTPEPIPDPEPTPEPEPEPVPTKTGYLTLGGSQRVTGATCNGESSDGFTFKPGEDVTCVAGNTTIATFNTQSEAARSLRAVEKVSFSLEDAQELAGSDDKKSNAVSLVTSSNSCPANTEQVCLTFSSVIESKRFDSLYKQIDLAPEEFKKLVNEEVENNAATDKAPSTHTSPVVPVTTPGTKPDLNASFVSANAEQFYQYQPTEIILSEGRLVDSQGYGVAGVNYYTNSGRGVTGENGEFSFSWGEAISFGIDTFELGSVRGNKSTIALTELGDEVRGANIDQLIHRYSTTGQNNTRVVPDDVRKVFAEYPNVINEIINLSLSNGATLGEGEQVVNLPNEFIEQFNTGQAKEIDTAICAKTDGCNEARWFSLTTRNVNDGQIQGVINKLWGVDTNYKSVSKFHVFHDSTNFYGSTGNARGQAVVNISNAAFPILMARNDKNYWLAFGEKRAWDKNELAYITEAPSIVRPENVTRETASFNLPFISLGQVGDGKLMVIGNPHYNSILRCPNGYSWNGGVNKDGQCTLNSDPDDMKNFMENVLRYLSNDRWLPDAKSSMTVGTNLETVYFKKHGQVLGNSAPFAFHKDFTGITVKPMTSYGNLNPDEVPLLILNGFEYVTQWGSDPYSIPLRADTSKPKLTQQDVTDLIAYMNKGGSVLIMENVMSNLKEESASGFVRLLDAAGLSMALNKSVVNNDPQGYPDRVRQRRSTPIWVYERYPAVDGKPPYTIDDTTKEVIWKYQQENKPDDKPKLEVASWQEEVEGKQVTQFAFIDEADHKTPESLAAAKQRILDAFPGLEVCKDSDYHYEVNCLEYRPGTDVPVTGGMYVPQYTQLDLSADTAKAMLQAADLGTNIQRLYQHELYFRTNGRQGERLNSVDLERLYQNMSVWLWNETKYRYEEGKEDELGFKTFTEFLNCYTNNAYVGTQCSAELKKSLIDNKMIYGEESSKAGMMNPSYPLNYMEKPLTRLMLGRSWWDLNIKVDVEKYPGVVNTNGETVTQNINLYSAPTKWFAGNMQSTGLWAPAQQEVSIESKSTVPVTVTVALADDLTGREKHEVSLNRPPRVTKTYDLKANDKVTFKVPYGGLIYIKGDSKEVQSADFTFTGVVKAPFYKDGKWQHDLNSPAPLGELESASFVYTTPKKNLNASNYTGGLEQFANDLDTFASSMNDFYGRDSEDGKHRMFTYKNLPGHKHRFANDVQISIGDAHSGYPVMNSSFSPNSTTLPTTPLNDWLIWHEVGHNAAETPLTVPGATEVANNVLALYMQDRYLGKMNRVADDITVAPEYLEESNGQAWARGGAGDRLLMYAQLKEWAEKNFDIKKWYPDGTPLPEFYSEREGMKGWNLFQLMHRKARGDEVSNDKFGGKNYCAESNGNAADTLMLCASWVAQTDLSEFFKKWNPGANAYQLPGASEMSFEGGVSQSAYNTLASLDLPKPEQGPETINQVTEHKMSAE
# Tests used:
# Experiment in all cases: glycan array binding signal (z-score within array); higher = stronger binding
# Conditions in all cases: glycan notation: IUPAC condensed, linker removed
# [1] = biological target: Neu5Ac(a2-3)Gal(b1-4)GlcNAc(b1-2)[Neu5Ac(a2-3)Gal(b1-4)GlcNAc(b1-4)]Man(a1-3)[GlcNAc(b1-4)][Neu5Ac(a2-3)Gal(b1-4)GlcNAc(b1-2)[Neu5Ac(a2-3)Gal(b1-4)GlcNAc(b1-6)]Man(a1-6)]Man(b1-4)GlcNAc(b1-4)GlcNAc
# In short: (§1)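 Arrays were curated from the Consortium for Functional Glycomics database, 3228 in total, and kept only where the protein sequence was available. Binding is expressed as a within-array Z-score. This score was averaged across arrays of the same protein sequence at different concentrations or buffers and across linkers, and negative values can be read as non-binding.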
# [2] = biological target: Neu5Ac(a2-3)Gal(b1-4)GlcNAc(b1-2)[Neu5Ac(a2-3)Gal(b1-4)GlcNAc(b1-4)]Man(a1-3)[GlcNAc(b1-4)][Neu5Ac(a2-3)Gal(b1-4)GlcNAc(b1-4)Man(a1-6)]Man(b1-4)GlcNAc(b1-4)GlcNAc
# In short: as §1
# [3] = biological target: Neu5Ac(a2-3)Gal(b1-4)GlcNAc(b1-2)[Neu5Ac(a2-3)Gal(b1-4)GlcNAc(b1-6)]Man(a1-6)[Neu5Ac(a2-3)Gal(b1-4)GlcNAc(b1-2)Man(a1-3)][GlcNAc(b1-4)]Man(b1-4)GlcNAc(b1-4)GlcNAc
# In short: as §1
# [4] = biological target: Neu5Ac(a2-3)Gal(b1-4)GlcNAc(b1-3)Gal
# In short: as §1
# [5] = biological target: Neu5Ac(a2-3)Gal(b1-4)GlcNAc(b1-3)Gal(b1-3)GlcNAc
# In short: as §1
# [6] = biological target: Neu5Ac(a2-3)Gal(b1-4)GlcNAc(b1-3)Gal(b1-4)GlcNAc
# In short: as §1
# [7] = biological target: Neu5Ac(a2-3)Gal(b1-4)GlcNAc(b1-3)Gal(b1-4)GlcNAc(b1-2)Man(a1-3)[Neu5Ac(a2-3)Gal(b1-4)GlcNAc(b1-3)Gal(b1-4)GlcNAc(b1-2)Man(a1-6)]Man(b1-4)GlcNAc(b1-4)GlcNAc
# In short: as §1
# [8] = biological target: Neu5Ac(a2-3)Gal(b1-4)GlcNAc(b1-3)Gal(b1-4)GlcNAc(b1-3)Gal(b1-4)GlcNAc
# In short: as §1
# [9] = biological target: Neu5Ac(a2-3)Gal(b1-4)GlcNAc(b1-3)Gal(b1-4)GlcNAc(b1-3)Gal(b1-4)GlcNAc(b1-2)Man(a1-3)[Neu5Ac(a2-3)Gal(b1-4)GlcNAc(b1-3)Gal(b1-4)GlcNAc(b1-3)Gal(b1-4)GlcNAc(b1-2)Man(a1-6)]GalNAc
# In short: as §1
# [10] = biological target: Neu5Ac(a2-3)Gal(b1-4)GlcNAc(b1-3)Gal(b1-4)GlcNAc(b1-3)GalNAc
# In short: as §1
# [11] = biological target: Neu5Ac(a2-3)Gal(b1-4)GlcNAc(b1-3)Gal(b1-4)GlcNAc(b1-3)[Neu5Ac(a2-3)Gal(b1-4)GlcNAc(b1-3)Gal(b1-4)GlcNAc(b1-6)]GalNAc
# In short: as §1
# [12] = biological target: Neu5Ac(a2-3)Gal(b1-4)GlcNAc(b1-3)Gal(b1-4)GlcNAc(b1-6)[Gal(b1-3)]GalNAc
# In short: as §1
# [13] = biological target: Neu5Ac(a2-3)Gal(b1-4)GlcNAc(b1-3)Gal(b1-4)[Fuc(a1-3)]GlcNAc
# In short: as §1
# [14] = biological target: Neu5Ac(a2-3)Gal(b1-4)GlcNAc(b1-3)GalNAc
# In short: as §1
# [15] = biological target: Neu5Ac(a2-3)Gal(b1-4)GlcNAc(b1-3)[Neu5Ac(a2-3)Gal(b1-4)GlcNAc(b1-6)]GalNAc
# In short: as §1
# [16] = biological target: Neu5Ac(a2-3)Gal(b1-4)GlcNAc(b1-6)GalNAc
# In short: as §1
# [17] = biological target: Neu5Ac(a2-3)Gal(b1-4)GlcNAc(b1-6)[Gal(b1-3)]GalNAc
# In short: as §1
# [18] = biological target: Neu5Ac(a2-3)Gal(b1-4)GlcNAc(b1-6)[Neu5Ac(a2-3)Gal(b1-3)]GalNAc
# In short: as §1
# [19] = biological target: Neu5Ac(a2-3)Gal(b1-4)GlcNAc6S
# In short: as §1
# [20] = biological target: Neu5Ac(a2-3)Gal(b1-4)[Fuc(a1-3)]GlcNAc
# In short: as §1
# [21] = biological target: Neu5Ac(a2-3)Gal(b1-4)[Fuc(a1-3)]GlcNAc(b1-2)Man
# In short: as §1
# [22] = biological target: Neu5Ac(a2-3)Gal(b1-4)[Fuc(a1-3)]GlcNAc(b1-3)Gal
# In short: as §1
# [23] = biological target: Neu5Ac(a2-3)Gal(b1-4)[Fuc(a1-3)]GlcNAc(b1-3)Gal(b1-4)GlcNAc
# In short: as §1
# [24] = biological target: Neu5Ac(a2-3)Gal(b1-4)[Fuc(a1-3)]GlcNAc(b1-3)Gal(b1-4)[Fuc(a1-3)]GlcNAc(b1-3)Gal(b1-4)[Fuc(a1-3)]GlcNAc
# In short: as §1
# [25] = biological target: Neu5Ac(a2-3)Gal(b1-4)[Fuc(a1-3)]GlcNAc(b1-3)GalNAc
# In short: as §1
# [26] = biological target: Neu5Ac(a2-3)Gal(b1-4)[Fuc(a1-3)]GlcNAc(b1-6)[Gal(b1-3)]GalNAc
# In short: as §1
# [27] = biological target: Neu5Ac(a2-3)Gal(b1-4)[Fuc(a1-3)]GlcNAc(b1-6)[Neu5Ac(a2-3)Gal(b1-3)]GalNAc
# In short: as §1
# [28] = biological target: Neu5Ac(a2-3)Gal(b1-4)[Fuc(a1-3)]GlcNAc6S
# In short: as §1
# [29] = biological target: Neu5Ac(a2-3)Gal6S(b1-4)GlcNAc
# In short: as §1
# [30] = biological target: Neu5Ac(a2-3)Gal6S(b1-4)[Fuc(a1-3)]GlcNAc
# In short: as §1
# Neu5Ac(a2-3)GalNAc = biological target: Neu5Ac(a2-3)GalNAc
# In short: as §1
# [31] = biological target: Neu5Ac(a2-3)GalNAc(b1-4)GlcNAc
# In short: as §1
# [32] = biological target: Neu5Ac(a2-3)[GalNAc(b1-4)]Gal(b1-4)Glc
# In short: as §1
# [33] = biological target: Neu5Ac(a2-3)[GalNAc(b1-4)]Gal(b1-4)GlcNAc
# In short: as §1
# [34] = biological target: Neu5Ac(a2-3)[GalNAc(b1-4)]Gal(b1-4)GlcNAc(b1-3)GalNAc
# In short: as §1
# [35] = biological target: Neu5Ac(a2-3)[Neu5Ac(a2-6)]GalNAc
# In short: as §1
# Neu5Ac(a2-6)Gal = biological target: Neu5Ac(a2-6)Gal
# In short: as §1
# [36] = biological target: Neu5Ac(a2-6)Gal(b1-3)GlcNAc(b1-3)[Gal(b1-4)GlcNAc(b1-6)]Gal(b1-4)Glc
# In short: as §1
# Neu5Ac(a2-6)Gal(b1-4)Glc = biological target: Neu5Ac(a2-6)Gal(b1-4)Glc
# In short: as §1
# [37] = biological target: Neu5Ac(a2-6)Gal(b1-4)GlcNAc
# In short: as §1
# [38] = biological target: Neu5Ac(a2-6)Gal(b1-4)GlcNAc(b1-2)Man
# In short: as §1
# [39] = biological target: Neu5Ac(a2-6)Gal(b1-4)GlcNAc(b1-2)Man(a1-3)Man(b1-4)GlcNAc(b1-4)GlcNAc
# In short: as §1
# [40] = biological target: Neu5Ac(a2-6)Gal(b1-4)GlcNAc(b1-2)Man(a1-3)[Gal(b1-4)GlcNAc(b1-2)Man(a1-6)]Man(b1-4)GlcNAc(b1-4)GlcNAc
# In short: as §1
# [41] = biological target: Neu5Ac(a2-6)Gal(b1-4)GlcNAc(b1-2)Man(a1-3)[GlcNAc(b1-2)Man(a1-6)]Man(b1-4)GlcNAc(b1-4)GlcNAc
# In short: as §1
# [42] = biological target: Neu5Ac(a2-6)Gal(b1-4)GlcNAc(b1-2)Man(a1-3)[GlcNAc(b1-4)][Neu5Ac(a2-6)Gal(b1-4)GlcNAc(b1-2)Man(a1-6)]Man(b1-4)GlcNAc(b1-4)GlcNAc
# In short: as §1
binder,measurement,setting,value
B1,glycan array binding signal (z-score),[1],-1
same,glycan array binding signal (z-score),[2],-0.172
same,glycan array binding signal (z-score),[3],0.765
same,glycan array binding signal (z-score),[4],0.236
same,glycan array binding signal (z-score),[5],0.515
same,glycan array binding signal (z-score),[6],-0.616
same,glycan array binding signal (z-score),[7],1.37
same,glycan array binding signal (z-score),[8],-1.24
same,glycan array binding signal (z-score),[9],2.64
same,glycan array binding signal (z-score),[10],0.399
same,glycan array binding signal (z-score),[11],1.36
same,glycan array binding signal (z-score),[12],-0.708
same,glycan array binding signal (z-score),[13],-1.22
same,glycan array binding signal (z-score),[14],-1.07
same,glycan array binding signal (z-score),[15],0.068
same,glycan array binding signal (z-score),[16],1.94
same,glycan array binding signal (z-score),[17],-0.92
same,glycan array binding signal (z-score),[18],-0.991
same,glycan array binding signal (z-score),[19],-0.498
same,glycan array binding signal (z-score),[20],-0.663
same,glycan array binding signal (z-score),[21],0.386
same,glycan array binding signal (z-score),[22],-1.23
same,glycan array binding signal (z-score),[23],1.47
same,glycan array binding signal (z-score),[24],0.993
same,glycan array binding signal (z-score),[25],1.46
same,glycan array binding signal (z-score),[26],0.474
same,glycan array binding signal (z-score),[27],0.655
same,glycan array binding signal (z-score),[28],-0.945
same,glycan array binding signal (z-score),[29],0.695
same,glycan array binding signal (z-score),[30],-2.1
same,glycan array binding signal (z-score),Neu5Ac(a2-3)GalNAc,-1.18
same,glycan array binding signal (z-score),[31],-1
same,glycan array binding signal (z-score),[32],-0.367
same,glycan array binding signal (z-score),[33],0.585
same,glycan array binding signal (z-score),[34],-0.417
same,glycan array binding signal (z-score),[35],-0.806
same,glycan array binding signal (z-score),Neu5Ac(a2-6)Gal,-0.16
same,glycan array binding signal (z-score),[36],-0.01
same,glycan array binding signal (z-score),Neu5Ac(a2-6)Gal(b1-4)Glc,-0.516
same,glycan array binding signal (z-score),[37],-0.475
same,glycan array binding signal (z-score),[38],0.202
same,glycan array binding signal (z-score),[39],-1
same,glycan array binding signal (z-score),[40],0.304
same,glycan array binding signal (z-score),[41],-0.403
same,glycan array binding signal (z-score),[42],0.078

# Shown with bars between the fields: part of the list above
binder | measurement | setting | value
B1 | glycan array binding signal (z-score) | [3] | 0.765
same | glycan array binding signal (z-score) | [29] | 0.695
same | glycan array binding signal (z-score) | [38] | 0.202
